The text below walks through data of US20150110793A1.

Results are given in words; binding and its absence hold for the method and conditions named. Some entries that bind do so weakly or less than the wild type.

The target in assay [1] is T1, Human EREG (Biacore analyte) (human) (UniProt O14944).
T1 sequence: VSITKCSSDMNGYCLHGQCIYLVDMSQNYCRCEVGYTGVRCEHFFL
Put plainly: SPR (Biacore T100, single-cycle kinetics), antibody captured on Protein A, human EREG as analyte; bar = KD of the antibody / KD of chimeric EP27 (cH-G1/cL-k). A general note: Surface plasmon resonance follows binding to a sensor surface in real time, without labels.

The target of assay [2] is T1, Human EREG (Biacore analyte) (human). Put plainly: SPR (Biacore T100, single-cycle kinetics), antibody captured on Protein A, human EREG as analyte; bar = KD of the antibody / KD of chimeric EP27.
Assay [3] shares this target. Put plainly: SPR (Biacore).
For assay [4], the target named is T2, soluble human EREG fragment having a mature EGF domain structure (R&D Systems, cat. no. 1195-EP/CF) (human) (UniProt O14944).
T2 sequence: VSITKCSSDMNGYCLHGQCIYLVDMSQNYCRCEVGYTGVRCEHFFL
The assay can be described thus: competitive ELISA.

For assay [5], the target named is T3, EREG expressed on cells (SK-HEP-1 lines forced to express EREG: SKE-18, SKE-23, SKE-4B2, SKE-10, SKE-15, SKE1; host SK-HEP-1; DLD-1) (UniProt O14944).
T3 sequence (looked up): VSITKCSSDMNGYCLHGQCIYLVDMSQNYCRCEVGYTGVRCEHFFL
Put plainly: flow cytometry of cells (FITC) and immunohistochemistry of transplanted tissue with the EP27 antibody as primary antibody; neither the legend nor Example 10 names the staining antibody of the histograms or says which histogram is the control; EP27 is the only staining antibody named in Example 10. (In general: In flow cytometry, cells or beads pass a laser one at a time.)

The target of assay [6] is T3, EREG expressed on cells (SK-HEP-1 lines forced to express EREG: SKE-18, SKE-23, SKE-4B2, SKE-10, SKE-15, SKE1; host SK-HEP-1; DLD-1). Put plainly: immunohistochemical staining of xenograft tissue of EREG-expressing SK-HEP-1 lines.

B1: H111-G1d/LB-k (antibody, human IgG1, kappa, V domains shown)
VH: QDQLVQSGAEVKKPGASVKVSCKASGFNIKDTYIQWVRQAPGQGLEWMGRIDPLRGNTKYREKFEGRVTITADTSTNTAYMELSSLRSEDTAVYYCVRSGTLFDFWGQGTLVTVSS
VL: DIQMTQSPSSLSASVGDRVTITCKASQDIHKYIAWYQQKPGQAPRLLIQYTSTLQPGVPSRFSGSGSGTDYTFTISSLQPEDIATYYCLQYDNLRTFGGGTKVEIKR
B1: the binding result in assay [1], in assay [2] and in assay [3] was “binds” in each case.

B2: H117-G1d/LB-k (antibody, human IgG1, kappa, V domains shown)
VH: QDQLVQSGAEVKKPGASVKVSCKASGFNIKDTYIQWVRQAPGQGLEWMGRIDPLRGRTKYREKFEGRVTITADTSTNTAYMELSSLRSEDTAVYYCVRSGTLFDFWGQGTLVTVSS
VL: DIQMTQSPSSLSASVGDRVTITCKASQDIHKYIAWYQQKPGQAPRLLIQYTSTLQPGVPSRFSGSGSGTDYTFTISSLQPEDIATYYCLQYDNLRTFGGGTKVEIKR
On to B2, for which the binding result in assay [1], in assay [2] and in assay [3] was “binds” each time.

B3: H123-G1d/LB-k (antibody, human IgG1, kappa, V domains shown)
VH: QDQLVQSGAEVKKPGASVKVSCKASGFNIKDTYIQWVRQAPGQGLEWMGRIDPLRGNTKYREKFERRVTITADTSTNTAYMELSSLRSEDTAVYYCVRSGTLFDFWGQGTLVTVSS
VL: DIQMTQSPSSLSASVGDRVTITCKASQDIHKYIAWYQQKPGQAPRLLIQYTSTLQPGVPSRFSGSGSGTDYTFTISSLQPEDIATYYCLQYDNLRTFGGGTKVEIKR
In the case of B3, the binding entry in assay [1], in assay [2] and in assay [3] was “binds” in each case.

B4: HY-G1d/L23-k (antibody, human IgG1, kappa, V domains shown)
VH: QDQLVQSGAEVKKPGASVKVSCKASGFNIKDTYIQWVRQAPGQGLEWMGRIDPLNGNTKYVPKFQGRVTITADTSTNTAYMELSSLRSEDTAVYYCVRSGTLFDFWGQGTLVTVSS
VL: DIQMTQSPSSLSASVGDRVTITCKASQDIHKYIAWYQQKPGQAPRLLIQYTSTLQEGVPSRFSGSGSGTDYTFTISSLQPEDIATYYCLQYDNLRTFGGGTKVEIKR
On to B4, for which the binding entry in assay [4] is “binds”.

B5: H116-G1d/LB-k (antibody, human IgG1, kappa, V domains shown)
VH: QDQLVQSGAEVKKPGASVKVSCKASGFNIKDTYIQWVRQAPGQGLEWMGRIDPLRRNTKYREKFEGRVTITADTSTNTAYMELSSLRSEDTAVYYCVRSGTLFDFWGQGTLVTVSS
VL: DIQMTQSPSSLSASVGDRVTITCKASQDIHKYIAWYQQKPGQAPRLLIQYTSTLQPGVPSRFSGSGSGTDYTFTISSLQPEDIATYYCLQYDNLRTFGGGTKVEIKR
B5: the binding entry in assay [1], in assay [2] and in assay [3] was “binds” in each case.

B6: H118-G1d/LB-k (antibody, human IgG1, kappa, V domains shown)
VH: QDQLVQSGAEVKKPGASVKVSCKASGFNIKDTYIQWVRQAPGQGLEWMGRIDPLRGNRKYREKFEGRVTITADTSTNTAYMELSSLRSEDTAVYYCVRSGTLFDFWGQGTLVTVSS
VL: DIQMTQSPSSLSASVGDRVTITCKASQDIHKYIAWYQQKPGQAPRLLIQYTSTLQPGVPSRFSGSGSGTDYTFTISSLQPEDIATYYCLQYDNLRTFGGGTKVEIKR
Take B6: the binding entry in assay [1], in assay [2] and in assay [3] was “binds” in each case.

B7: H120-G1d/LB-k (antibody, human IgG1, kappa, V domains shown)
VH: QDQLVQSGAEVKKPGASVKVSCKASGFNIKDTYIQWVRQAPGQGLEWMGRIDPLRGNTKRREKFEGRVTITADTSTNTAYMELSSLRSEDTAVYYCVRSGTLFDFWGQGTLVTVSS
VL: DIQMTQSPSSLSASVGDRVTITCKASQDIHKYIAWYQQKPGQAPRLLIQYTSTLQPGVPSRFSGSGSGTDYTFTISSLQPEDIATYYCLQYDNLRTFGGGTKVEIKR
As for B7, the binding result in assay [1], in assay [2] and in assay [3] was “binds” in each case.

B8: H121-G1d/LB-k (antibody, human IgG1, kappa, V domains shown)
VH: QDQLVQSGAEVKKPGASVKVSCKASGFNIKDTYIQWVRQAPGQGLEWMGRIDPLRGNTKYRERFEGRVTITADTSTNTAYMELSSLRSEDTAVYYCVRSGTLFDFWGQGTLVTVSS
VL: DIQMTQSPSSLSASVGDRVTITCKASQDIHKYIAWYQQKPGQAPRLLIQYTSTLQPGVPSRFSGSGSGTDYTFTISSLQPEDIATYYCLQYDNLRTFGGGTKVEIKR
Consider B8, for which the binding result in assay [1], in assay [2] and in assay [3] was “binds” each time.

B9: HY-G1d/L20-k (antibody, human IgG1, kappa, V domains shown)
VH: QDQLVQSGAEVKKPGASVKVSCKASGFNIKDTYIQWVRQAPGQGLEWMGRIDPLNGNTKYVPKFQGRVTITADTSTNTAYMELSSLRSEDTAVYYCVRSGTLFDFWGQGTLVTVSS
VL: DIQMTQSPSSLSASVGDRVTITCQASQDIHKYIAWYQQKPGQAPRLLIQYTSTLEPGVPSRFSGSGSGTDYTFTISSLQPEDIATYYCLQYDNLRTFGGGTKVEIKR
Turning to B9, in assay [4], the binding entry is listed as “binds”.

B10: H132-G1d/LB-k (antibody, human IgG1, kappa, V domains shown)
VH: QDQLVQSGAEVKKPGASVKVSCKASGFNIKDTYIQWVRQAPGQGLEWMGRIDPLRRNTKYREKFEGRVTITADTSTNTAYMELSSLRSEDTAVYYCVRSGRLFDFWGQGTLVTVSS
VL: DIQMTQSPSSLSASVGDRVTITCKASQDIHKYIAWYQQKPGQAPRLLIQYTSTLQPGVPSRFSGSGSGTDYTFTISSLQPEDIATYYCLQYDNLRTFGGGTKVEIKR
Take B10: the binding entry in assay [1], in assay [2] and in assay [3] was “binds” throughout.

B11: H111-G1d/L48-k (antibody, human IgG1, kappa, V domains shown)
VH: QDQLVQSGAEVKKPGASVKVSCKASGFNIKDTYIQWVRQAPGQGLEWMGRIDPLRGNTKYREKFEGRVTITADTSTNTAYMELSSLRSEDTAVYYCVRSGTLFDFWGQGTLVTVSS
VL: DIQMTQSPSSLSASVGDRVTITCKASQDIHKYIAWYQQKPGQAPRLLIQYTSTLQPGVPSRFSGSGSGTDYTFTISSLQPEDIATYYCLQYDNRRTFGGGTKVEIKR
Consider B11, for which the binding entry in assay [1], in assay [2] and in assay [3] was “binds” in each case.

B12: mouse hybridoma-derived EP27 (antibody, V domains shown)
VH: EDQLQQSGAELVKPGASVKLSCTASGFNIKDTYIQWVKLRPEQGLEWIGRIDPLNGNTKYVPKFQGKATITADTSSNTAYLQLSSLTSEDTAVYYCVRSGTLFDFWGQGTTLTVSS
VL: DIQMTQSPSSLSASLGGKVTITCKASQDIHKYIAWYQHKPGKGPRLLIQYTSTLQPGIPSRFSGSGSGRDYSFSISNLEPEDIATYYCLQYDNLRTFGGGTKLEIK
In the case of B12, the binding result in assay [5] and in assay [6] was “binds” throughout.
